Reference: patent publication US11964935B2, “Gingerol derivative having inhibitory activity against biofilm formation and pharmaceutical composition comprising same as effective ingredient for preventing or treating biofilm-caused infection symptom” (Korea University Research and Business Foundation, Sejong …, priority 2017, dated 2024)
Some of these results come from one statement about several compounds together.

Protein sequences, listed by entry. Tags and fused reporters are not part of them. Lines headed by an entry give the natural chain unless they say otherwise; changes in a name come on top.
UniProt P25084: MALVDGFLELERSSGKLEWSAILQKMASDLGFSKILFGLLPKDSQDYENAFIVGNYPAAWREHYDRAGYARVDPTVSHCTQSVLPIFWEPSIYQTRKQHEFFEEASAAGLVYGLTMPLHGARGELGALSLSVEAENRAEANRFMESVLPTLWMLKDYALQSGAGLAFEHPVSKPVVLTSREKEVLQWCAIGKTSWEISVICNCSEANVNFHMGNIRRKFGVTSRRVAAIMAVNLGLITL

The compounds below were run against T1, LasR (Pseudomonas aeruginosa, UniProt P25084) (assay: LasR reporter gene assay (E. coli reporter strain, luminescence, competition with OdDHL)). Conditions: 10 μM, in the absence of OdDHL.
T1 construct: expressed in transfected cells; host or cells: E. coli DH5α (printed DHSα) co-transformed with pJN105L and pSC11
Format: cell-based
Description: This assay was conducted by modifying a previously reported method. E. coli DHSα co-transformed with two plasmids, pJN105L (LasR expression plasmid) and pSC11 (lasI::lacZ fusion plasmid), was used as a bioassay reporter strain. Overnight culture of the reporter strain with 10 μg/mL gentamicin and 50 μg/mL ampicillin was diluted in the Luria-Bertani (LB) medium (1:100). Then, the reporter strain (optical density at 595 nm [OD595] was 0.3) mixed with either a positive control or the synthesized compound was incubated with OdDHL (Sigma-Aldrich, St. Louis, MO., USA) and 0.4% arabinose (Sigma-Aldrich). After incubation at 37° C. for 1.5 h, OD595 was measured on a VICTOR ×5 multimode plate reader (PerkinElmer, Waltham, Mass., USA). The β-galactosidase activity was determined using a Tropix plus kit (Applied Biosystems, USA), and luminescence was measured on the VICTOR ×5 multimode plate reader. RLU ratio was quantified by dividing luminescence with OD595.
LasR-binding affinity of the synthesized gingerols (compounds 4-10) with various alkyl chain lengths was determined by measuring luminescence of an E. coli reporter strain. The reporter strain carried two plasmids, pJN105L (LasR expression plasmid) (Lee, J. H.; Lequette, Y.; Greenberg, E. P. Activity of purified QscR, a Pseudomonas aeruginosa orphan quorum-sensing transcription factor. Mol. Microbiol. 2006, 59, 602609.) and pSC11 (las1::lacZ fusion plasmid) (Chugani, S. A.; Whiteley, M.; Lee, K. M.; D'Argenio, D.; Manoil, C.; Greenberg, E. P. QscR, a modulator of quorum-sensing signal synthesis and virulence in Pseudomonas aeruginosa. Proc. Natl. Acad. Sci. U.S.A. 2001, 98, 27522757.), which enabled assay of competitive binding of OdDHL with each gingerol derivative 4-10. Antagonistic activities of the synthesized compounds at 1 μM or 10 μM were determined by measuring luminescence in the presence of 1 μM OdDHL (compound 1a) and presented as relative luminescence unit (RLU) ratio. Three compounds (compounds 1b, 1c, and 1d) served as positive controls. […] Just as the LasR inhibition, inhibition of biofilm formation also strengthened as the carbon chain was extended at 10 μM ((B) of FIG. 3). However, inhibition of biofilm formation decreased with 9-gingerol (compound 9) and 10-gingerol (compound 10) at 100 μM ((C) of FIG. 3) because of increased bacterial growth inhibition. […] This effect may be due to the fact that compounds 9 and 10 act as a surfactant, which inhibits bacterial growth. Agonistic activities of compounds 4-10 in an E. coli reporter assay system in the absence of OdDHL were next examined.
With `CCCCC(O)CC(=O)CCc1ccc(O)c(OC)c1` (stereo not shown) [Compound 5, 5-Hydroxy-1-(4-hydroxy-3-methoxyphenyl)nonan-3-one] the “Agonistic activity to LasR” value was “None of them showed agonistic activity”. `CCCCCCCC(O)CC(=O)CCc1ccc(O)c(OC)c1` (racemic) [Compound 8, 5-Hydroxy-1-(4-hydroxy-3-methoxyphenyl)dodecan-3-one] was tested, and the “Agonistic activity to LasR” value was “None of them showed agonistic activity”. For `CCCCCCCCC(O)CC(=O)CCc1ccc(O)c(OC)c1` (stereo not shown) [Compound 9, 5 -Hydroxy-1-(4-hydroxy-3-methoxyphenyl)tridecan-3-one], the “Agonistic activity to LasR” value was “None of them showed agonistic activity”. `CCCCCC(O)CC(=O)CCc1ccc(O)c(OC)c1` (racemic) [Compound 6, 5-Hydroxy-1-(4-hydroxy-3-methoxyphenyl)decan-3-one] was tested, and the “Agonistic activity to LasR” value was “None of them showed agonistic activity”. With `CCCCCCCCCC(O)CC(=O)CCc1ccc(O)c(OC)c1` (stereo not shown) [Compound 10, 5-Hydroxy-1-(4-hydroxy-3-methoxyphenyl)tetradecan-3-one] the “Agonistic activity to LasR” value was “None of them showed agonistic activity”. `CCCCCCC(O)CC(=O)CCc1ccc(O)c(OC)c1` (stereo not shown) [Compound 7, 5 -Hydroxy-1-(4-hydroxy-3-methoxyphenyl)undecan-3-one] was tested, and the “Agonistic activity to LasR” value was “None of them showed agonistic activity”. `CCCC(O)CC(=O)CCc1ccc(O)c(OC)c1` (stereo not shown) [Compound 4, 5-Hydroxy-1-(4-hydroxy-3-methoxyphenyl)octan-3-one] was tested, and the “Agonistic activity to LasR” value was “None of them showed agonistic activity”.
